Reference: patent US20020094344A1, “Method of loading preformed liposomes using ethanol” (The University of British Columbia, priority 1996, published 2002)
Some results were stated once for a whole list of compounds, not compound by compound.

Assay: Release of entrapped solutes from EPC vesicles in 30% ethanol
Format: physicochemical
Settings: 25° C.

## inulin
  time to release contents from EPC vesicles: ≤ 30 m
